Data: patent US20260022165A1 (US Dept. of Health and Human Services, published 2026)
These are yes or no findings as the source states them, for the method shown. Binding can be weak; no strength is given. Where a sequence is shown, tags or fusion partners need not be part of it.

B1: Ab1 Fab (His-tagged rabbit/human chimeric anti-C3d Fab) (Fab, V domains shown)
VH: QSVEESRGRLVTPGTPLTLTCTVSGIDLSSSAITWVRQAPGKGLEWIGMISTDGATYYANWAKGRFTFSKTSTTADLKITSPTTEDTATYFCARGLTNFSIWGPGTLVTVSS
VL: QPVLTQSPSASAALGASAKLTCTLSSAHKTYTIAWYQQQPGESPRYLMLLKSDGSYTRGPGVPDRFSGSSSGADRYLIIPSVQADDEAGYYCGADYNGGYVFGGGTQLTVTG
notes: Fab from the phage display vector pC3C with rabbit Vλ/human Cλ/rabbit VH, His-tagged; also called Ab1 (λ)
B2: Ab5 Fab (His-tagged rabbit/human chimeric anti-C3d Fab) (Fab, V domains shown)
VH: QSLEESGGRLVTPGTPLTLTCTVSGFSLSTYTLGWVRQAPGKGLEYIGWIDSSGSAYYASWAKGRFTISKASSTTVDLKMAGLTTEDTATYFCASGNTGGDPLYYGMDPWGPGTLVTVSS
VL: DPVLTQTPSSTSAAVGGTVTIKCQASQNIGRWLAWYQQKPGQPPKLLIYRASDLASGVPSRFKGSGSGTQFTLTISGVQREDAATYYCLGSYSSSDSAFGGGTEVVVK
notes: Fab with rabbit Vκ/human Cκ/rabbit VH, His-tagged; also called Ab5 (κ)
B3: Ab4 Fab (His-tagged rabbit/human chimeric anti-C3d Fab) (Fab, V domains shown)
VH: QSLEESGGRLVTPGTPLTLTCTVSGFSLSRYTMAWVRQAPGKGLEYIGWIDSSGSTYYASWAKGRFTISKTSSTTVDLKMTSLTTEDTATYFCASGNDGGDPLYYGMDPWGPGTLVTVSS
VL: DGVMTQTPSSTSAAVGGTVTIKCQASQSIRSWLSWYQQKPGQPPKLLIYEASKLASGVPSRFKGSRSGTEYTLAISGVQREDAATYYCLGSIASDDTAFGAGTNVEIK
notes: Fab with rabbit Vκ/human Cκ/rabbit VH, His-tagged; also called Ab4 (κ)
B4: Ab2 Fab (His-tagged rabbit/human chimeric anti-C3d Fab) (Fab, V domains shown)
VH: QSVEESGGRLVTPGTPLTLTCTVSGFSLSSYAMTWVRQAPGKGLEWIGVIGTSGMRYYANWAKGRFTISKTSTTVDLKITSPTTEDTATYFCARANFYVGNDESTDAFDPWGPGTLVTVSS
VL: ALVMTQTPPSLSASVGETVRIRCLASEDIYNTISWYQQKPGKPPTLLIYGASNLKSGVPPRFSGSGSGTDYTLTIGGVQSEDAATYYCLGGYSYSSTGLTFGAGTKVEIK
notes: Fab with rabbit Vκ/human Cκ/rabbit VH, His-tagged; also called Ab2 (κ)

Biological target: cynomolgus macaque complement protein C3d (cynomolgus macaque)
Experiment: flow cytometry; His-tagged Fab on zymosan particles opsonized with cynomolgus macaque serum (C3b/iC3b/C3d); detection AF488 mouse anti-His mAb

Binder | binding
B1 | binds
B2 | binds
B3 | binds
B4 | binds
